Source: publication PMC10831936 (iScience, 2024)

Tests used:
[1] = test system: EGFR NFAT; experiment: ERBBprofiler barcoded NFAT pathway sensor, EGFR co-transfected; type: cell-based, Rattus norvegicus; conditions: PC12 cells; constant EGF 30 ng/mL, EGFld 10 ng/mL, serotonin 1 μM; 6 h; barcode readout; relative IC50
[2] = test system: Ca2+; conditions: read-out: IC50_Literature, Ca2+; Fluo-4 signals in serotonin receptors expressing HEK293 cells; ref Röser et al., 2012; cited from earlier work
[3] = test system: EGFR; conditions: read-out: IC50_Literature, EGFR; phospho-WB, Tyr1173-phosphorylation of EGFR in U87MG cells; ref Kobayashi et al., 2019; cited from earlier work
[4] = test system: ERBB4; conditions: read-out: IC50_Literature, ERBB4; phospho-WB, Tyr1284-phosphorylation of ERBB4 in primary murine cortical neurons; ref Kobayashi et al., 2019; cited from earlier work
[5] = test system: ERBB4 NFAT; experiment: ERBBprofiler barcoded NFAT pathway sensor, ERBB4 co-transfected; type: cell-based, Rattus norvegicus; conditions: PC12 cells; constant EGF 30 ng/mL, EGFld 10 ng/mL, serotonin 1 μM; 6 h; barcode readout; relative IC50
[6] = test system: ERBB4 CRE; experiment: ERBBprofiler barcoded CRE pathway sensor, ERBB4 co-transfected; conditions: Rattus norvegicus, PC-12, 6 h, read-out: ERBB4 CRE IC50
[7] = test system: EGFR CRE; experiment: ERBBprofiler barcoded CRE pathway sensor, EGFR co-transfected; conditions: Rattus norvegicus, PC-12, 6 h, read-out: EGFR CRE IC50

- IC50 [6]: 30.8 nM
- IC50 [7]: 8.39 nM
Compound: CN1CCN(C2=Nc3cc(Cl)ccc3Nc3ccccc32)CC1 [Clozapine]
- EGFR NFAT IC50 [1]: no effect (EGFR, ERBB2/3, ERBB4), 0.053 µM (HTR2A)
- IC50 [2]: 80 nM
- IC50 [3]: 47 µM
- IC50 [4]: 16 µM
- ERBB4 NFAT IC50 [5]: no effect (EGFR, ERBB2/3, ERBB4), 0.053 µM (HTR2A)
